Assay results: patent publication US11406720B2, “Fibroblast growth factor receptor 2-specific peptide reagents and methods” (THE REGENTS OF THE UNIVERSITY OF MICHIGAN, priority 2017, dated 2022)

Tested on: human esophageal specimens (SQ, BE, HGD, EAC)
Assay: Confocal microscopy staining of sections of human esophagus ex vivo
Assay type: binding
Conditions: for Pearson's correlation coefficient, co-localization with AF488-labeled anti-FGFR2 antibody: merged images
Protocol: Formalin-fixed sections of human esophageal specimens were deparaffinized, and antigen retrieval was performed using standard methods. Briefly, the sections were incubated in xylene for 3 min 3×, washed with 100% ethanol for 2 min 2×, and washed with 95% ethanol for 2 min 2×. Rehydration was performed by washing in dH2O for 5 min 2×. Antigen unmasking was performed by boiling the slides in 10 mM sodium citrate buffer with 0.05% Tween at pH 6.0, and then maintaining at sub-boiling temperature for 15 min. The slides were cooled for 30 min, and the sections were washed in dH2O for 3 min 3× and in PBS for 5 min. Blocking was performed with DAKO protein blocking agent (X0909, DAKO) for 1 hour at RT. The peptides were incubated at a concentration of 1 μM for 10 min at RT. The sections were washed in PBS for 3 min 3×, and incubated with 1:1000 dilution of monoclonal anti-FGFR2 (Abcam, ab58201) overnight at 4° C.
The sections were then washed in PBS for 5 min 3×. A 1:500 dilution of AF488-labeled secondary antibody (goat anti-mouse) was added to each section and incubated for 30 min at RT. The secondary antibody solution was removed by washing with PBS for 5 min 3×. The sections were then mounted with ProLong Gold reagent containing DAPI (Invitrogen). The mean fluorescence intensities from 3 boxes (dimensions of […]) located completely within the surface epithelium of each specimen were measured. […] Serial sections were processed for routine histology (H&E), and were reviewed by an expert gastrointestinal pathologist (HDA).

“SRR*-Cy5.5: 12 amino acid sequence SRRPASFRTARE with fluorophore Cy5.5 attached via a GGGSK linker on the C-terminus (C-terminal GGGSK linker and Cy5.5)” was tested, and the “Pearson's correlation coefficient, co-localization with AF488-labeled anti-FGFR2 antibody” value (“Pearson's correlation coefficient” below) (BE) was 0.54, the “Pearson's correlation coefficient” value (EAC) was 0.59 and the “Pearson's correlation coefficient” value (HGD) was 0.52. The “Pearson's correlation coefficient” value (SQ) was 0.59 and the “overall Pearson's coefficient, fluorescence intensities versus AF488-labeled anti-FGFR2 antibody” value (all specimens of SQ, BE, HGD, EAC) was 0.66.
